Measured values as given in patent US20230102840A1, “COMPOSITIONS AND METHODS RELATING TO COMBINATORIAL HYALURONIC ACID CONJUGATES” (PRESIDENT AND FELLOWS OF HARVARD COLLEGE, priority 2020, published 2023).

Test system: A431 cells
Test: In vitro cytotoxicity on A431 cells
Format: cell-based
Details: Homo sapiens, A-431; 48 h, alamar blue
Method: A431 cells were cultured in DMEM media supplemented with 10% FBS, 1% Pen Strep. The cells were passaged 3-4 times prior to setting up the assay. HuT 78 cells were culture in IMDM supplemented with 20% FBS. Cells were cultured in a humidified incubator maintained at 37° C. and 5% C02 (Thermo scientific, USA). A431 Cells (5×10^3 in 100 ul in complete DMEM) were seeded in 96 well plates and allowed to adhere overnight. The next day, cell culture media was aspirated and replaced with the different treatments. The cells were incubated with the drug solutions for 48 hr after which the treatment was aspirated and replaced with 10% alamar blue (AB) solution in complete DMEM and incubated for an additional 3.5 h in the dark at 37° C. Similarly, HUT 78 cells, (5×10^3 cells in 50 ul IMDM) were seeded in U bottom well plates and treatments were added to a final volume of 100 ul in each well. […] Finally, cellular viability was assessed by reading the florescence of the solution from each well at λex=560 nm and λem=590 nm. […] Baseline fluorescence levels from wells without cells were subtracted from each data (Dose response curves were fit to each drug and/or polymer drug conjugate with the median effect model^[28]. For combination treatment, synergy was quantified with the combination index^[29]

O=C(CCCCCCC(=O)Nc1ccccc1)NO [VOR, Vorinostat]
IC50: 5.46 µM
